# From article PMC10163288
# The other results are listed elsewhere or left out.
# B1: il10ra_site1_normal_mot_HHH_b2_00345_af2_000000013_0001_42_56_H_._HHH_b1_07352_af2_0001_0000300020_0000002_0 (protein)
# chain: SSSSTEVQEIAARAVQLAFRLSDEETLQELWELFKKYIEEGDEEYRERLEELLEELEERLSSSSS
# B2: il10ra_site1_sap_17_mot_HHH_b2_00441_000000147_0001_1_18_H_._HHH_b1_07716_0001_0000800059_0000001_0_0001_af2pred_0001 (protein)
# chain: SSSSDVEEQVKRLLLEALEIRDPEERKEVLEEAERLARENNDPELELLVEAAKFLIEESFSSSSS
# B3: il10ra_site1_sap_21_mot_HHH_b1_07962_000000254_0001_41_55_H_._HHH_b2_04450_0001_0000400041_0000001_0_0001 (protein)
# chain: SSSSDQREQHLRAIKWFAEWSWELGNRHIARRAVEIAIELAEELNNPEILEELRQLLEELESSSS
# B4: il10ra_site1_normal_mot_HHH_b1_05021_af2_000000167_0001_42_56_H_._HHH_b1_01558_af2_0001_0000200008_0000001_0_af2pred_0001 (protein)
# chain: SSSSTERTEEVQELLEEAIELLRNGNPEEAREVLEEAREIAEEGNNPLLKWIVEWALRLLSSSSS
# B5: il10ra_site1_normal_mot_HHH_b2_01397_000000078_0001_23_39_H_._HHH_b1_06054_0001_0000200024_0000002_0 (protein)
# chain: SSSSDEEDRRYVKLTARFARFLLEEGDEEAARRLVRAAEDVAKRANDPELLRELEELLEELSSSS
# B6: il10ra_site1_sap_27_mot_HHH_b2_08186_000000021_0001_43_56_H_._HHH_b2_05088_af2_0002_0000900025_0000001_0_0001_af2pred_0001 (protein)
# chain: SSSSDDEEKIRLTLRFAEWLLEQGDPEAAEFYLKAAEELARRINNEELEEKIKELQEEVRSSSSS
# B7: il10ra_site1_normal_mot_HHH_b2_03220_af2_000000223_0001_23_40_H_._HHH_b1_06979_af2_0001_0000400016_0000001_0 (protein)
# chain: SSSSSEAEEVWKLLRRILELRAHGNPEEAERLLEEAERLVEEANNLVLKFAVEAVRRAVRLSSSS
# B8: il10ra_site1_sap_25_mot_HHH_b1_02665_000000293_0001_1_18_H_._a4073ed34bad1529e7d46a7d39fa26d0_0001_af2_0001_0000400008_0000001_0_0001 (protein)
# chain: SSSSTLERSIEHMLRAIERARELGDEEYVKLALKFVKRSAEALNDEEARRLVEELEERLRSSSSS
# B9: il10ra_site1_normal_mot_HHH_b2_07784_af2_000000103_0001_19_36_H_._HHH_b1_01959_0001_0000200017_0000002_0 (protein)
# chain: SSSSDLYERVKEAIEEIVRLLREGNPEEAEELAEEAERLVKENNNETTLFQLEFLIRLVQRSSSS
# B10: il10ra_site1_sap_31_mot_HHH_b1_05377_000000047_0001_42_55_H_._HHH_b1_03657_0001_0000500029_0000001_0_0001_af2pred_0001 (protein)
# chain: SSSSTAEQLVRAALKAAKIAREHGDEEKVEKILEIAKLIARVANNEELEEAIKRFEEELRSSSSS
# B11: il10ra_site1_sap_26_mot_HHH_b2_02366_000000098_0001_18_34_H_._249ddc539912ed11994fc964835e7f91_0001_0001_0000100006_0000002_0_0001 (protein)
# chain: SSSSDEEERLEELKERLKELLEEGDTRRLSREAQEALRLAIQLGDKETLREIWELIKKAESSSSS
# B12: il10ra_site1_normal_mot_HHH_b1_02997_000000220_0001_39_52_H_._HHH_b2_04343_0001_0000400024_0000002_0 (protein)
# chain: SSSSSSDLYELSREAAELLFEGNPEEAREVLEEAREIAEEKNNLNHLINIEYLERDVNSSSSSSS
# B13: il10ra_site1_normal_mot_HHH_b2_05323_000000159_0001_1_18_H_._HHH_b2_05670_af2_0001_0000200013_0000001_0 (protein)
# chain: SSSSSDEVLELTLEAFRLALRGDPEEAKEVLEEALRLAEEAGNERLIRQIRNLLEVLERLSSSSS
# B14: il10ra_site1_sap_18_mot_HHH_b1_06789_af2_000000041_0001_1_20_H_._HHH_b2_00598_0001_0000200011_0000001_0_0001 (protein)
# chain: SSSDEEERAVELFVKAARLIEEGDEEEAEKLLEELRELVEKIGDPRFRMSVRFLEALLRAHSSSS
# B15: il10ra_site1_sap_15_mot_HHH_b2_04680_000000215_0001_1_16_H_._HHH_b1_07329_0001_0000300030_0000001_0_0001 (protein)
# chain: SSSSDERVRRIYEILRRVVELHHEGDREEAERLLEEAERLAEEANDRVLLAVIEFLERLLESSSS
# B16: il10ra_site1_sap_18_mot_HHH_b2_07145_000000158_0001_24_40_H_._394de4c172568015e4b749d6fe9a249d_0001_af2_0001_0000900017_0000001_1_0001_af2pred_0001 (protein)
# chain: SSSSSEEQERVSELLIRAFAAATQGNPEEAERLLEEAEEVAQEGNDPRLEQMVEIVKRELSSSSS
# B17: il10ra_site1_sap_24_mot_HHH_b2_02354_af2_000000157_0001_40_56_H_._HHH_b1_08177_0001_0000200023_0000001_0_0001_af2pred_0001 (protein)
# chain: SSSSSSREVVELLRKAAELLAEGNFEEAQRVLEEAEELAKEANDQTAEVLVEFLLKHVEQSSSSS
# B18: il10ra_site1_sap_21_mot_HHH_b1_04771_000000013_0001_40_56_H_._HHH_b1_05247_0001_0000500023_0000001_0_0001 (protein)
# chain: SSSSDQEEELVRAAIRLIEQLIKNGNPEAARMILWAAEKLAKEINNPELLEELEELKELLNSSSS
# B19: il10ra_site1_sap_23_mot_HHH_b2_00066_000000124_0001_1_17_H_._HHH_b2_06951_af2_0001_0000300008_0000002_0_0001 (protein)
# chain: SSSSDAEEEVEELLREAEELIERGDPREAIKVLAEAVRAAFHAGNEELLQAVWELVRKLRSSSSS
# Target: il10ra, Q13651
# Test: yeast display titration
row,Binder,apparent Kd
1,B1,inactive: no binding seen
2,B2,inactive: no binding seen
3,B3,inactive: no binding seen
4,B4,inactive: no binding seen
5,B5,inactive: no binding seen
6,B6,inactive: no binding seen
7,B7,inactive: no binding seen
8,B8,inactive: no binding seen
9,B9,inactive: no binding seen
10,B10,inactive: no binding seen
11,B11,inactive: no binding seen
12,B12,inactive: no binding seen
13,B13,inactive: no binding seen
14,B14,inactive: no binding seen
15,B15,inactive: no binding seen
16,B16,inactive: no binding seen
17,B17,inactive: no binding seen
18,B18,inactive: no binding seen
19,B19,inactive: no binding seen

# 2 neighbouring entries from above, quoted:
row,Binder,apparent Kd
17,B17,inactive: no binding seen
18,B18,inactive: no binding seen
